{"source": "PubChem BioAssay AID493014", "about": "(National Center for Advancing Translational Sciences (NCATS), 2011)", "note": "Screen size: about 340,000 compounds; about 170 (0.05%) were called active. The shares of active, inactive and inconclusive entries below differ from those in the screen. Calls follow the shape of the dose curve; as a rule, active = well fitted inhibition curve with a large enough effect in the signal ratio, with a control signal flat (not every such curve was filed as active); inconclusive = small, poorly fitted or top-dose-only effect, or effect the other way, or a change in a side signal; inactive = flat fitted curve, though single readings scatter; the % refers to the signal ratio. Potencies beside an inconclusive call are fits to weak or partial responses and may not hold up."}
{"assay": "qHTS Assay to Find Inhibitors of Chronic Active B-Cell Receptor Signaling; also: potency is read from the fitted curve at half-maximal effect;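 as to activity change, negative = inhibition: plate controls were basal doxycycline-induced cells for no effect and cells given 10 µM MG132 for full effect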", "conditions": "ABC-DLBCL IkBa-CBG/CBR reporter, luminescence ratio (green luciferase fused to IkBa over red control in TMD8 lymphoma cells), 4 h; activity change, negative = inhibition: at 46.1 µM (top of the series)", "how_it_was_run": "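Cell line TMD8 (human ABC DLBCL), stably expressing tet-inducible CBG68-IkBa fusion and CBR; IMDM/0.5% FBS; cpd up to 46 uM; dox induction, 4 h, 37C/5% CO2; dual luminescence; green/red ratio; MG132 control.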"}
{"molecule": "CC1=CC(C)(C)N2C(=O)C3(C(C#N)=C(N)Oc4cc(O)ccc43)c3c(C)c(C)cc1c32", "note": "(configuration not stated)", "activity change, negative = inhibition": "inconclusive: -26.3%"}
{"molecule": "Cc1ccc(CN2CCN(C(=O)c3ccco3)CC2)cc1", "activity change, negative = inhibition": "inconclusive: 15.7%"}
{"molecule": "N#Cc1cnn(-c2nc3sc4c(c3c(=O)[nH]2)CCCC4)c1N", "activity change, negative = inhibition": "inconclusive: 1.32%"}
{"molecule": "CN1CCN(C(=O)c2ccccc2-c2nc(-c3ccccc3)no2)CC1", "activity change, negative = inhibition": "inconclusive: 10.1%"}
{"molecule": "CCCCSc1nc2c(cnn2-c2ccccc2)c(=O)n1N", "Potency": "inconclusive: 22.4 µM [falling, partial curve, poor fit]"}
{"molecule": "Clc1cccc(N2CCN(Cc3ccc(Br)o3)CC2)c1", "activity change, negative = inhibition": "inactive"}
{"molecule": "Cc1cc(OCCCn2cnc3ccccc3c2=O)ccc1[N+](=O)[O-]", "activity change, negative = inhibition": "inactive"}
{"molecule": "COc1ccc(NC2CC(=O)N(C(C)C)C2=O)cc1", "note": "(configuration not stated)", "activity change, negative = inhibition": "inactive"}
{"molecule": "Cn1c(/C=C/c2cccc(Br)c2)nc2ccccc2c1=O", "activity change, negative = inhibition": "inconclusive: -2.85%"}
{"molecule": "CCc1ccc(OCC(=O)NC2CCCCC2)c(Br)c1", "activity change, negative = inhibition": "inactive"}
{"molecule": "Nc1nnnn1/N=C/c1ccc(N2CCCCC2)c([N+](=O)[O-])c1", "activity change, negative = inhibition": "inconclusive: 1.77%"}
{"molecule": "CCOC(=O)c1c(N)c(C#N)nn1-c1ccccc1C(=O)OC", "activity change, negative = inhibition": "inconclusive: -4.11%"}
{"molecule": "O=C(CN1C(=O)S/C(=C\\c2ccccc2F)C1=O)Nc1ccccc1O", "Potency": "inconclusive: 35.5 µM [falling, single point]"}
{"molecule": "CCCC(=O)c1ccc(N2CCN(C(=O)c3ccc(Br)cc3)CC2)c(F)c1", "activity change, negative = inhibition": "inactive"}
{"molecule": "O=C(CN(Cc1ccccc1)C(=O)CCl)c1cccc(Br)c1", "activity change, negative = inhibition": "inconclusive: 9.95%"}
{"molecule": "O=C(Nc1ccccc1)Nc1ccccc1C(=O)NCc1ccco1", "Potency": "inconclusive: 29.1 µM [falling, single point]"}
{"molecule": "S=C(NCCc1ccccc1)NCCc1ccccc1", "activity change, negative = inhibition": "inconclusive: 9.57%"}
{"molecule": "O=C(CCOc1ccccc1)Nc1cccc(S(=O)(=O)Nc2ccccc2Cl)c1", "activity change, negative = inhibition": "inconclusive: 0.894%"}
{"molecule": "CC(=O)N1CCN(c2ccc(Nc3ncnc4c3oc3ccccc34)cc2)CC1", "activity change, negative = inhibition": "inconclusive: -1.29%"}
{"molecule": "NCCC(=O)N1c2ccccc2Sc2ccc(Cl)cc21", "Potency": "inconclusive: 35.5 µM [falling, partial curve, poor fit]"}
{"molecule": "COc1cc(C=C2C(=O)c3ccccc3C2=O)cc(OC)c1", "activity change, negative = inhibition": "inconclusive: 4.91%"}
{"molecule": "Cc1cc(C)n(Cc2ccccc2Cl)n1", "activity change, negative = inhibition": "inactive"}
{"molecule": "Cc1ccc(CNC(=O)c2nnn(-c3cccc(C)c3)c2N)cc1", "Potency": "inconclusive: 15.8 µM [falling, partial curve]"}
{"molecule": "CCC[C@@H](CN[C@@H](CNC)[C@H](C)CC)NCC1CCC(C(C)(C)C)CC1", "note": "(some centres not stated)", "Potency": "inconclusive: 17.8 µM [falling, partial curve]"}
{"molecule": "CC[N+](CC)(CC#Cc1ccccc1)CC#Cc1ccccc1", "activity change, negative = inhibition": "inconclusive: 3.97%"}
{"molecule": "C=C1CCN(c2ccc(C(=O)NCc3ccc(C)cc3)cc2[N+](=O)[O-])CC1", "activity change, negative = inhibition": "inconclusive: 29.4%"}
{"molecule": "Cc1[nH]c(C)c(S(=O)(=O)N2CCN(c3cccc(Cl)c3)CC2)c1C(=O)N1CCCCC1", "activity change, negative = inhibition": "inactive"}
{"molecule": "Cc1c(N/N=C(\\C#N)C(=O)c2ccccc2)c(=O)n(-c2ccccc2)n1C", "Potency": "inconclusive: 23.1 µM [falling, single point]"}
{"molecule": "COc1ccc(CCNc2oc(COc3ccc(Br)cc3)nc2C#N)cc1OC", "Potency": "inconclusive: 20.6 µM [falling, partial curve]"}
{"molecule": "O=C(Nc1nc2c(s1)CCCC2)c1ccc2ncsc2c1", "Potency": "inconclusive: 14.6 µM [falling, partial curve]"}
{"molecule": "O=C(CN1CCN(c2ccccc2)CC1)c1c[nH]c2ccccc12", "Potency": "inconclusive: 10 µM [falling, partial curve]"}
{"molecule": "C=CCn1c(SCC(=O)NCC2CCCO2)nnc1-c1ccccc1", "note": "(configuration not stated)", "activity change, negative = inhibition": "inactive"}
{"molecule": "COCCn1cnc2c1c(=O)n(Cc1ccccc1C#N)c(=O)n2Cc1ccccc1", "activity change, negative = inhibition": "inconclusive: 0.772%"}
{"molecule": "Cc1oc2c(c1C(=O)N1CCOCC1)C(=O)c1ccccc1C2=O", "activity change, negative = inhibition": "inconclusive: 1.76%"}
{"molecule": "COc1ccc(NC(=O)CN2c3cccc4cccc(c34)S2(=O)=O)cc1", "Potency": "inconclusive: 11.2 µM [falling, partial curve]"}
{"molecule": "CCNc1nc(NCC)n2c(SCC(=O)Nc3ccc(CC)cc3)nnc2n1", "Potency": "inconclusive: 16.4 µM [falling, partial curve, poor fit]"}
{"molecule": "O=C(NC(Cc1c[nH]c2ccccc12)C(=O)O)/C(=C\\c1ccc2c(c1)OCO2)NC(=O)c1ccccc1", "note": "(configuration not stated)", "activity change, negative = inhibition": "inconclusive: 1.76%"}
{"molecule": "CCCCC(=O)Nc1ccc(NC(=S)NC(=O)c2cccs2)cc1OC", "activity change, negative = inhibition": "inactive"}
{"molecule": "Cc1cccc(C(=O)NC(=S)Nc2ccc(S(=O)(=O)N(C)c3ccccc3)cc2)c1", "activity change, negative = inhibition": "inactive"}
{"molecule": "CC(C)CCN(C(=O)Cc1ccc(Cl)c(Cl)c1)c1c(N)n(Cc2ccccc2)c(=O)[nH]c1=O", "activity change, negative = inhibition": "inconclusive: 10.4%"}
{"molecule": "Cc1ccc(C(=O)N/N=C\\C=C\\c2ccccc2[N+](=O)[O-])cn1", "activity change, negative = inhibition": "inconclusive: 5.11%"}
{"molecule": "Cc1ccccc1C(=O)c1cccn1CC(=O)NCC1CCCO1", "note": "(configuration not stated)", "activity change, negative = inhibition": "inconclusive: 5.15%"}
{"molecule": "O=C(N/C(=C\\c1ccc(F)cc1)C(=O)N1CCCCCC1)c1ccccc1", "activity change, negative = inhibition": "inconclusive: 4.64%"}
{"molecule": "CCc1cc2c(=O)n(CC(=O)NCCc3ccc(OC)c(OC)c3)cnc2s1", "activity change, negative = inhibition": "inconclusive: 5.8%"}
{"molecule": "CCn1c(COc2ccccc2)nnc1SCC(=O)Nc1cc(OC)ccc1OC", "activity change, negative = inhibition": "inconclusive: 16.2%"}
{"molecule": "O=[N+]([O-])c1ccc(-c2ccc(/C=N/Nc3nc(NCc4ccccc4)nc(N4CCOCC4)n3)o2)cc1", "activity change, negative = inhibition": "inactive"}
{"molecule": "COc1ccc(CN2CCCC(C(=O)Nc3cccc(-n4cccn4)c3)C2)c(F)c1", "note": "(configuration not stated)", "Potency": "inconclusive: 35.5 µM [falling, single point]"}
{"molecule": "C=CCNC(=S)Nc1cccc(N)c1", "activity change, negative = inhibition": "inconclusive: -0.675%"}
{"molecule": "CCN(CC)CCNC(=O)c1ccc(N2CCCCC2)c(NS(=O)(=O)c2ccc(C)cc2)c1", "activity change, negative = inhibition": "inactive"}
{"molecule": "COC(=O)c1ccc(NC(=O)COc2ccc(C3C(C#N)=C(N)Oc4c3ccc3ccccc43)cc2OC)cc1", "note": "(configuration not stated)", "activity change, negative = inhibition": "inactive"}
{"molecule": "O=C(OC1CCCCC1)c1ccc(NC(=O)C2CCCCC2)cc1", "activity change, negative = inhibition": "inconclusive: 5.94%"}
{"molecule": "COc1cccc(-c2sc3ccccc3c2-c2ccc(OCCN(C)C)cc2)c1", "activity change, negative = inhibition": "inconclusive: -16.2%"}
